Experimental data reported in PMC5855860.
These are yes or no findings as the source states them, for the method shown. Tags and fused reporters may be left off the sequences shown.

Sequences of proteins named here, by UniProt entry; tags and fusion partners are left off.
UniProt P0A3V6: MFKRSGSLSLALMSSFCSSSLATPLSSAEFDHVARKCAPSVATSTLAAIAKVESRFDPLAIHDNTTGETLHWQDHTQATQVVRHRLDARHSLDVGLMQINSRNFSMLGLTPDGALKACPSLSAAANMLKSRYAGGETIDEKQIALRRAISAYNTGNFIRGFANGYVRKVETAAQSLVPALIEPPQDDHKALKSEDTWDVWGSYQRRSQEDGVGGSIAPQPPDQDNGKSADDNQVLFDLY
UniProt P0A3W2: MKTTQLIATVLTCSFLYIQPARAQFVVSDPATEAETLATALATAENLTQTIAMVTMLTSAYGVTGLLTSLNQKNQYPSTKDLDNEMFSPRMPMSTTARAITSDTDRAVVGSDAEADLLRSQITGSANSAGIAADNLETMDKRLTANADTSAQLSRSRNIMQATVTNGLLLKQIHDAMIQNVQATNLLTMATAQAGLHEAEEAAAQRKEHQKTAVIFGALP
UniProt P07543: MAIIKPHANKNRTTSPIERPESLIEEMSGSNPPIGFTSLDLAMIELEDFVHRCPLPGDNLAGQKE

Legend:
Assay in all cases: two-hybrid; LexA bait fusions (pSST91) and GAL4 activation domain prey fusions (pGAD424) in yeast CTY10-5d, 30 °C; colony colour on SD medium with X-Gal lacking leucine and tryptophan; the same strains also in liquid ONPG β-galactosidase assays
[1] = molecular target: VirB1, yeast two-hybrid fusion (Agrobacterium tumefaciens) (UniProt P0A3V6)
[2] = molecular target: VirB5, yeast two-hybrid fusion (Agrobacterium tumefaciens) (UniProt P0A3W2)
[3] = molecular target: T1, VirD2, yeast two-hybrid fusion (Agrobacterium tumefaciens) (UniProt P06668)
T1 sequence: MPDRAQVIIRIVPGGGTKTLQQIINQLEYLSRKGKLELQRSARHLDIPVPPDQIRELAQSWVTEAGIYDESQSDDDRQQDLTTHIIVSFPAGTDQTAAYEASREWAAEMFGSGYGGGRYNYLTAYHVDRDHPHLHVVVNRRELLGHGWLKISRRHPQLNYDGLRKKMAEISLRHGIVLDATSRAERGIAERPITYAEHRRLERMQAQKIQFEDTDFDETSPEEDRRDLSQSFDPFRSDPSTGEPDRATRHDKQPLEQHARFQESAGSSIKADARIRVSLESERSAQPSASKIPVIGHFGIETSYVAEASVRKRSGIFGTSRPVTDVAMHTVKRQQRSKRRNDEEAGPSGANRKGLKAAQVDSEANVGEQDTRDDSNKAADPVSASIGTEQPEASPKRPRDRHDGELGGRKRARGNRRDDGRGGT

[4] = molecular target: VirE1, yeast two-hybrid fusion (Agrobacterium tumefaciens) (UniProt P07543)
[5] = molecular target: T2, VirF, yeast two-hybrid fusion (Agrobacterium tumefaciens) (UniProt P15597)
T2 sequence: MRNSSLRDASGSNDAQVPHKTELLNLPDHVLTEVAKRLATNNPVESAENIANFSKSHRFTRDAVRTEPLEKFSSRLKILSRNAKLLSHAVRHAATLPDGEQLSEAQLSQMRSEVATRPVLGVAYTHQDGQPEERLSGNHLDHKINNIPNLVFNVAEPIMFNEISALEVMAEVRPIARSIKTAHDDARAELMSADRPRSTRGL

[6] = molecular target: T3, RTNLB5, yeast two-hybrid fusion (Arabidopsis thaliana) (UniProt O82352)
T3 sequence: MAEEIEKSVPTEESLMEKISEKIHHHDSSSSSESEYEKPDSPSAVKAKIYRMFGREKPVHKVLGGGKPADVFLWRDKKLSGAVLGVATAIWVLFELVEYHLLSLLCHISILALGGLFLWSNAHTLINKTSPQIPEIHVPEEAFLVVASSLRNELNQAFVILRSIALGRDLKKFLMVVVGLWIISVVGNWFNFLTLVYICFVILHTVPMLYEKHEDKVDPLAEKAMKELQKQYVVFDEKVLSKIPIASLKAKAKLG

[7] = molecular target: T4, RTNLB7, yeast two-hybrid fusion (Arabidopsis thaliana) (UniProt Q9M145)
T4 sequence: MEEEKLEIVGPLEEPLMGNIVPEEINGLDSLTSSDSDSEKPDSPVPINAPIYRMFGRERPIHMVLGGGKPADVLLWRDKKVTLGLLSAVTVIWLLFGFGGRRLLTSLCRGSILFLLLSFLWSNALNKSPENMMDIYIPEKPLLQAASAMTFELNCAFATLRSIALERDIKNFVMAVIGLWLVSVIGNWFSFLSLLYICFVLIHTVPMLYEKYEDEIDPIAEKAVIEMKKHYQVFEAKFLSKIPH

[8] = molecular target: T5, RTNLB8, yeast two-hybrid fusion (Arabidopsis thaliana) (UniProt Q9SS37)
T5 sequence: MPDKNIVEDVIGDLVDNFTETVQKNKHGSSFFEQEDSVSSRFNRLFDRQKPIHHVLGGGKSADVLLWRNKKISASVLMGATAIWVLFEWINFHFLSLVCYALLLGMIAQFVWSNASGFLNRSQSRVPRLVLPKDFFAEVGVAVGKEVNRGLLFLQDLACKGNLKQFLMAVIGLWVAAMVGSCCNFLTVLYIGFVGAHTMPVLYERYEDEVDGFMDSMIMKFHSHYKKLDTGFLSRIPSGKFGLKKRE

[9] = molecular target: T6, reticulon-like protein B1 (RTNLB1), yeast two-hybrid fusion (Arabidopsis thaliana) (UniProt Q9SUR3)
T6 sequence: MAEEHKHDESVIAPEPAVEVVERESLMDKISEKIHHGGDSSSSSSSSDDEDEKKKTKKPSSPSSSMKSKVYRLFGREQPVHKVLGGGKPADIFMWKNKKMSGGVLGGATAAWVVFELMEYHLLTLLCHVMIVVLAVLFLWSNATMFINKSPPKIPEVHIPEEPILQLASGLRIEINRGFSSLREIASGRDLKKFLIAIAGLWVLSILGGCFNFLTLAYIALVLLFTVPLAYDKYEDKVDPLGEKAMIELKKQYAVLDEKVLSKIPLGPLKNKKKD

[10] = molecular target: T7, reticulon-like protein B2 (RTNLB2), yeast two-hybrid fusion (Arabidopsis thaliana) (UniProt Q9SUT9)
T7 sequence: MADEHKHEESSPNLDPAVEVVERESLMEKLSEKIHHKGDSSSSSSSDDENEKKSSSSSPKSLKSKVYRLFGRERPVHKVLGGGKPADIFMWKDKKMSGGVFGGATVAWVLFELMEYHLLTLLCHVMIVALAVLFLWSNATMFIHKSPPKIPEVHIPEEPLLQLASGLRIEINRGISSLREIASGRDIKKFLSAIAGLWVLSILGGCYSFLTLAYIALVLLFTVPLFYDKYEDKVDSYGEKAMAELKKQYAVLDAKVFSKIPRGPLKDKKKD

[11] = molecular target: T8, reticulon-like protein B4 (RTNLB4), yeast two-hybrid fusion (Arabidopsis thaliana) (UniProt Q9FFS0)
T8 sequence: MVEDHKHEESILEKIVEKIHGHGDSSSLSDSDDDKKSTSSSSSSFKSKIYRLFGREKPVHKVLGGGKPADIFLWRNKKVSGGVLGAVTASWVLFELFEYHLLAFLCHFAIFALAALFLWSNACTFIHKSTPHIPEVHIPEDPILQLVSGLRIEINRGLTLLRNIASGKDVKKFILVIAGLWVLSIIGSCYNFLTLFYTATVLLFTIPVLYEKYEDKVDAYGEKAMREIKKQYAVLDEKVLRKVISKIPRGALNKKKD

[12] = molecular target: T9, RTNLB6, yeast two-hybrid fusion (Arabidopsis thaliana) (UniProt Q6DBN4)
T9 sequence: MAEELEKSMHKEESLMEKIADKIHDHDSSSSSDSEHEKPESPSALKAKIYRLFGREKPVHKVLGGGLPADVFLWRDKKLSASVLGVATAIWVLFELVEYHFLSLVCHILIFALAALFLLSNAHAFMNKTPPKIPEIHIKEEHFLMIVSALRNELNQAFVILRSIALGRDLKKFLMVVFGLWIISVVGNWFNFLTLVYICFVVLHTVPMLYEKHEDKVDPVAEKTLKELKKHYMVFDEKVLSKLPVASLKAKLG

Measured: binding

RTNLB7, yeast two-hybrid fusion (from UniProt Q9M145 1-244)
no binding: [1] | [2] | [3] | [4] | [5]

RTNLB5, yeast two-hybrid fusion (from UniProt O82352 1-255)
no binding: [1] | [2] | [3] | [4] | [5]

B1: RETICULON-LIKE3 (RTNLB3), yeast two-hybrid fusion (protein, UniProt Q9SH59 1-255)
chain: MAEEHKHEESIMEKISEKIHGHDDSSSSSSDSDDDKNSASLKTKIYRLFGREQPLHKLFGGGKPADIFLWRNKKVSGGVLGAATVSWILFELLEYNLLTLFGHISILALAVLFLWSSASTFIHKSPLHIPEVHIPEDVVLQLASGLRIEINRGFTVLRDIASGRDLKKFLLVIAGLWVLSKVGSSCNFLTLIYIATVLLFTIPVLYEKYEDKVDDFGEKAMREIKKQYVEFDVKVLSKVMSKIPKGAFAFIKKKD
no binding: [6] | [7] | [1] | [2] | [3] | [4] | [5]

B2: RTNLB6, yeast two-hybrid fusion (protein, UniProt Q6DBN4 1-253)
chain: MAEELEKSMHKEESLMEKIADKIHDHDSSSSSDSEHEKPESPSALKAKIYRLFGREKPVHKVLGGGLPADVFLWRDKKLSASVLGVATAIWVLFELVEYHFLSLVCHILIFALAALFLLSNAHAFMNKTPPKIPEIHIKEEHFLMIVSALRNELNQAFVILRSIALGRDLKKFLMVVFGLWIISVVGNWFNFLTLVYICFVVLHTVPMLYEKHEDKVDPVAEKTLKELKKHYMVFDEKVLSKLPVASLKAKLG
not listed: [12]
no binding: all other assays above

B3: RTNLB8, yeast two-hybrid fusion (protein, UniProt Q9SS37 1-247)
chain: MPDKNIVEDVIGDLVDNFTETVQKNKHGSSFFEQEDSVSSRFNRLFDRQKPIHHVLGGGKSADVLLWRNKKISASVLMGATAIWVLFEWINFHFLSLVCYALLLGMIAQFVWSNASGFLNRSQSRVPRLVLPKDFFAEVGVAVGKEVNRGLLFLQDLACKGNLKQFLMAVIGLWVAAMVGSCCNFLTVLYIGFVGAHTMPVLYERYEDEVDGFMDSMIMKFHSHYKKLDTGFLSRIPSGKFGLKKRE
not listed: [10] | [11]
no binding: all other assays above
